Here are results for two molecules from paper PMC5761851, “Application of a phenotypic drug discovery strategy to identify biological and chemical starting points for inhibition of TSLP production in lung epithelial cells” (PLoS ONE, 2018).

For this series, the system named is 125 representative kinases. Description: 125 kinase selectivity panel (overall). It is filed as biochemical. To be noted: 10 μM; 125 kinases. How it is done:
Kinase selectivity was evaluated at Eurofins Pharma Discovery Services using a selection of 125 representative kinases tested at a concentration of 10 μM in duplicate (S3 Table). IC50 values for selected activities were further characterized at 9 duplicate concentrations. DNA-PK activity was determined at the SelectScreen® Biochemical kinase Profiling Service of Thermo Fisher Scientific.

Molecules are shown by their SMILES.

On to `Cn1cc(-c2cccc(-c3nc(C(=O)NC4C5CC6CC4CC(O)(C6)C5)c(N)nc3N)c2)cn1` (centres unmarked) [compound 4], for which the “number of kinases of the panel with % inhibition > 50” value is on record as 9.

`CS(=O)(=O)N1CCN(c2ccc(Nc3ncc(C(N)=O)c(NC4CC4)n3)cc2)CC1` [compound 5]: the “number of kinases of the panel with % inhibition > 50” value came to 89.
